Source: ChEMBL document CHEMBL3988442, “University of Dundee, Small-Polar-MMV Screening Library” (2021).

By UniProt entry, the sequences of proteins in these tests, tags left out. Residues count along the entry.
UniProt I6X8D2, whole entry: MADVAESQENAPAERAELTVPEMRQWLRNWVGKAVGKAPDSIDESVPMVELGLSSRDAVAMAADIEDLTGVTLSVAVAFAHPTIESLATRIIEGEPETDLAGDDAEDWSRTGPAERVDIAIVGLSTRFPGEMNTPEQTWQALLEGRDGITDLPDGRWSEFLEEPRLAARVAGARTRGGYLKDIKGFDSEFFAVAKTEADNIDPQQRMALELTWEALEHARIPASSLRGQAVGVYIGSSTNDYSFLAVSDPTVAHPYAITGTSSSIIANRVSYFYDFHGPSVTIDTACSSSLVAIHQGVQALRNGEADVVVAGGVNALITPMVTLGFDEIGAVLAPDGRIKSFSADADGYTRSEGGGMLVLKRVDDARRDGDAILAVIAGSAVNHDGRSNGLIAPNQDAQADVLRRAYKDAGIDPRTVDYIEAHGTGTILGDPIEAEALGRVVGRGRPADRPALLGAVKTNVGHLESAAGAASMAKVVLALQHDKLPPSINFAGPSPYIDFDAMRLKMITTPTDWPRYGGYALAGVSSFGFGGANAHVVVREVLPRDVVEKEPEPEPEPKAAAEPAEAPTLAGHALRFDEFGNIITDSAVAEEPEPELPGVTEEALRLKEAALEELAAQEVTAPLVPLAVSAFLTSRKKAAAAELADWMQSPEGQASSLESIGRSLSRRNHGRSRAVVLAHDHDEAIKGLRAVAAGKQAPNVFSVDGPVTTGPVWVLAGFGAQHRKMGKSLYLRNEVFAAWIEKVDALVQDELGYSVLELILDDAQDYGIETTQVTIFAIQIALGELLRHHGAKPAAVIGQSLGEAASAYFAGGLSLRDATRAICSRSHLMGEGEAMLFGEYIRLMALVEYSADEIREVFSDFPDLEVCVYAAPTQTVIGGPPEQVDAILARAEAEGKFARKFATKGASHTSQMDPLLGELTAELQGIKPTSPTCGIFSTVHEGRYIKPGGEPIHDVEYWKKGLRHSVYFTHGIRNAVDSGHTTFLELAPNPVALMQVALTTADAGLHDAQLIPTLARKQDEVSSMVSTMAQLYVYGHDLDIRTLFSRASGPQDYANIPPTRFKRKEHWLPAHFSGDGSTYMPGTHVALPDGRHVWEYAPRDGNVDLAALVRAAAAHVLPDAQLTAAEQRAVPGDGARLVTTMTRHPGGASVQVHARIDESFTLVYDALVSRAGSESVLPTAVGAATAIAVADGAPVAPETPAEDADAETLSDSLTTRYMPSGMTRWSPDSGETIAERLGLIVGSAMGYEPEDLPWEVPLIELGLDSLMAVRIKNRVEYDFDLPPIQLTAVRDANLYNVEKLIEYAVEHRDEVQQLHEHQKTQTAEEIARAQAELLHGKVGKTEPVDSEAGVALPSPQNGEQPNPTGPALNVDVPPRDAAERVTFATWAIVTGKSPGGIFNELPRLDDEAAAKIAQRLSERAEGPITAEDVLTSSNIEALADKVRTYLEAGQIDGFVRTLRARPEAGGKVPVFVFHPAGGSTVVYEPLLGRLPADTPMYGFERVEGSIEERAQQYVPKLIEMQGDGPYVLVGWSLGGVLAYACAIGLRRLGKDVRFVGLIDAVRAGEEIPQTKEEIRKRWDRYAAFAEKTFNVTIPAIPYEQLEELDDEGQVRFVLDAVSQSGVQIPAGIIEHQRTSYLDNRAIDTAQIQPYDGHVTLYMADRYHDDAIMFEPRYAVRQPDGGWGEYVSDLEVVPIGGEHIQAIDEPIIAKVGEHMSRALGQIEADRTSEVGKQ
UniProt Q8IDJ8, 1-583: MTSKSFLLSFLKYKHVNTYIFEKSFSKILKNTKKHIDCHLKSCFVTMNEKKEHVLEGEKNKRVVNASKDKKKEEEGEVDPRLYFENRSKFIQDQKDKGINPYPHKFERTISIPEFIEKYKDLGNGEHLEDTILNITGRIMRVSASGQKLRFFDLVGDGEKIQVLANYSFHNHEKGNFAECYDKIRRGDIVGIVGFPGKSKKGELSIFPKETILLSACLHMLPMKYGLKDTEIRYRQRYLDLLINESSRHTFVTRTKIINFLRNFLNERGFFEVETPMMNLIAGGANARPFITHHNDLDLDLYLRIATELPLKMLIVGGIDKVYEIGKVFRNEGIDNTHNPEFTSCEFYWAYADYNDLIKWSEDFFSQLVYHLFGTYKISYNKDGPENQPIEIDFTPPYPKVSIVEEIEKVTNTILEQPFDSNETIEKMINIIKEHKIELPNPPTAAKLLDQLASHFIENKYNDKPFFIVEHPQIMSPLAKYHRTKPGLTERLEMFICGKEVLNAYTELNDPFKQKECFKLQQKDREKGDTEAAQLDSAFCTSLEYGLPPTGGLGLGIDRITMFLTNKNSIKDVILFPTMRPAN
UniProt P9WNZ1, whole entry: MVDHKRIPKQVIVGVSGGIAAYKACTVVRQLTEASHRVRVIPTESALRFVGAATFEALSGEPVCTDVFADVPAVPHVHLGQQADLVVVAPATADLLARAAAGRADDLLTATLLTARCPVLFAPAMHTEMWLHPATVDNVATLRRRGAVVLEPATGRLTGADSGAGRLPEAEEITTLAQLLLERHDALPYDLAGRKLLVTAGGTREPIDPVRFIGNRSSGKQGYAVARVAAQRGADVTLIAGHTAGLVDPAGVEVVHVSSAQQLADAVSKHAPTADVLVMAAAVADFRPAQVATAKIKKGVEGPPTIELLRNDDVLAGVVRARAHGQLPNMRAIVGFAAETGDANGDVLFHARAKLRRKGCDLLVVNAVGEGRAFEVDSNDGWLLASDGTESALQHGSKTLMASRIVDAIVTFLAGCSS

Pks13 thioesterase: 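Enzyme assay of the thioesterase domain of polyketide synthase 13; the read-out is not stated. Target: Polyketide synthase Pks13, Mycobacterium tuberculosis (UniProt I6X8D2). Concentration: 30 µM. Higher reads as stronger inhibition (inferred from which compounds were picked for retests). Of about 67,000 compounds tested this way, about 300 (0.46%) reached 50% or more in at least one test.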
PfKRS1: 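Lysine-tRNA ligase, Plasmodium falciparum 3D7 (UniProt Q8IDJ8). Enzyme assay of the cytosolic lysyl-tRNA synthetase in 384-well plates, read by luminescence. Tested at 30 µM. Direction is inferred from only a few compounds that gave an IC50; most scored high, so higher reads as stronger inhibition. About 69,000 compounds were tested under these conditions; 0.071% (about 49) showed 50% or more at least once.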
CoaBC: 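Enzyme assay of CoaBC with a phosphate dye (Biomol Green) read at 650 nm. Target: Coenzyme A biosynthesis protein CoaBC, Mycobacterium tuberculosis (UniProt P9WNZ1). Concentration: 30 µM. Direction is inferred from only a few compounds that gave an IC50; most scored high, so higher reads as stronger inhibition. Most strong results did not repeat in a second test. Of about 67,000 compounds tested this way, about 40 (0.06%) reached 50% or more in at least one test.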

Results are given as percent effect.
How 0% and 100% were set is not recorded. Most values in the screen are low, and negative values occur.
Compounds were drawn at random from those tested, without regard to their results.

{"compound": "CN(C)[C@H]1CCCCN(C(=O)COCc2nc3cc(F)ccc3[nH]2)C1", "Pks13 thioesterase": -23.17, "PfKRS1": -4.159, "CoaBC": -1.09}
{"compound": "CC(=O)Nc1ccc([C@@H](O)[C@H]2COCC(=O)N2CC(C)C)cc1", "Pks13 thioesterase": -31.43, "PfKRS1": 5.672, "CoaBC": 1.375}
{"compound": "CCN(Cc1cccc2c1OCO2)C(=O)Nc1ccncc1", "Pks13 thioesterase": -12.36, "PfKRS1": 4.981, "CoaBC": 2.635}
{"compound": "CO[C@@H]1CC[C@H]2[C@H]1OCCN2C(=O)COc1ccc(F)cc1", "Pks13 thioesterase": -12.04, "PfKRS1": 0.2445, "CoaBC": 2.828}
{"compound": "Cc1cnn(CC2CCCN2C(=O)c2ccc(F)cc2Cl)c1", "stereo": "stereo unspecified", "Pks13 thioesterase": -15.69, "PfKRS1": 2.117, "CoaBC": -8.311}
{"compound": "CCN(Cc1ccc(CN(C)C)cc1)C(=O)c1ccncc1O", "Pks13 thioesterase": -15.39, "PfKRS1": 0.5184, "CoaBC": -3.984}
{"compound": "c1ccc(CO[C@@H]2C[C@H]3CN(c4ncccn4)CCN3C2)nc1", "Pks13 thioesterase": -22.02, "PfKRS1": -0.5009}
{"compound": "Cc1n[nH]c(C)c1CCC(=O)NCC1COc2ccccc2C1", "stereo": "stereo unspecified", "Pks13 thioesterase": -7.988, "PfKRS1": 0.2555, "CoaBC": -3.78}
{"compound": "Oc1cc(-c2nccs2)nc(C2CCN(Cc3cccs3)CC2)n1", "Pks13 thioesterase": 5.935, "PfKRS1": 0.5677, "CoaBC": 4.854}
{"compound": "CSCCc1nc(C(C)C)nn1-c1ccncc1C", "Pks13 thioesterase": -33.38, "PfKRS1": 3.901}
{"compound": "Cc1oc(-c2ccco2)nc1CNC1CCCN(c2cccnn2)C1", "stereo": "stereo unspecified", "Pks13 thioesterase": -11.78, "PfKRS1": 0.9303, "CoaBC": 6.053}
{"compound": "CN(C)S(=O)(=O)N1CC[C@]2(C[C@@H](Oc3cccnc3)CO2)C1", "Pks13 thioesterase": -11.42, "PfKRS1": 8.525, "CoaBC": 5.882}
{"compound": "Cc1cnnn1Cc1nnn2c1CN(Cc1cccs1)CCC2", "Pks13 thioesterase": -31.55, "PfKRS1": 1.301, "CoaBC": -6.667}
{"compound": "CSc1ccc2cc(CN(C)CCc3cn[nH]c3)c(=O)[nH]c2c1", "Pks13 thioesterase": -13.09, "PfKRS1": 4.114, "CoaBC": 2.137}
{"compound": "COCC1COCCC12CCN(C(=O)Cc1ccc(F)cc1)CC2", "stereo": "stereo unspecified", "Pks13 thioesterase": 2.379, "PfKRS1": 1.078, "CoaBC": 1.754}
{"compound": "O=C(Cn1cc(-n2cccc2)cn1)NCC(F)(F)F", "Pks13 thioesterase": 3.131, "PfKRS1": 5, "CoaBC": 2.532}
{"compound": "Cc1nc(C)c(C(=O)Nc2ccc(-c3nnc(N(C)C)o3)cc2)o1", "Pks13 thioesterase": -13.22, "PfKRS1": 6.895, "CoaBC": 5.357}
{"compound": "CCC(CC)c1cc(CNC(=O)N2CCCC(c3ncc[nH]3)C2)on1", "stereo": "stereo unspecified", "Pks13 thioesterase": -39.79, "PfKRS1": 1.769, "CoaBC": -3.433}
{"compound": "COCC1CN(Cc2cnn(C)c2)Cc2nn(C)cc21", "stereo": "stereo unspecified", "Pks13 thioesterase": -20.16, "PfKRS1": 4.257, "CoaBC": -0.8403}
{"compound": "CCN(Cc1ccc(C)o1)C(=O)C(C)n1ccnc1C(C)C", "stereo": "stereo unspecified", "Pks13 thioesterase": -37.73, "PfKRS1": 0.7219, "CoaBC": 4.198}
{"compound": "CC(C)C(=O)N1CCOC[C@H](Oc2ccc(C(F)(F)F)cc2)C1", "Pks13 thioesterase": -31.84, "PfKRS1": 1.16, "CoaBC": 8.168}
{"compound": "COCCC(=O)Nc1ccnc(Oc2ccccc2)c1", "Pks13 thioesterase": -18.28, "PfKRS1": 6.698, "CoaBC": 3.104}
{"compound": "CCN1CCN(S(=O)(=O)c2cc(C)c(Cl)cc2Cl)CC1", "Pks13 thioesterase": -1.964, "PfKRS1": -6.26, "CoaBC": -3.636}
{"compound": "O=C(NC1CCN(C(=O)C2CCCCC2)C1)c1ccncc1Cl", "stereo": "stereo unspecified", "Pks13 thioesterase": 2.516, "PfKRS1": 2.622, "CoaBC": 1.942}

For reference, 3 entries once more:

Cc1cnn(CC2CCCN2C(=O)c2ccc(F)cc2Cl)c1 (stereo unspecified) read Pks13 thioesterase: -15.69%; PfKRS1: 2.117%; CoaBC: -8.311%.
CCN(Cc1cccc2c1OCO2)C(=O)Nc1ccncc1 read Pks13 thioesterase: -12.36%; PfKRS1: 4.981%; CoaBC: 2.635%.
c1ccc(CO[C@@H]2C[C@H]3CN(c4ncccn4)CCN3C2)nc1 read Pks13 thioesterase: -22.02%; PfKRS1: -0.5009%.